Assay [1] addresses T1, V5-tagged POU1F1 (POU class 1 homeobox 1), expressed in HEK293T cells (UniProt P28069).
T1 sequence: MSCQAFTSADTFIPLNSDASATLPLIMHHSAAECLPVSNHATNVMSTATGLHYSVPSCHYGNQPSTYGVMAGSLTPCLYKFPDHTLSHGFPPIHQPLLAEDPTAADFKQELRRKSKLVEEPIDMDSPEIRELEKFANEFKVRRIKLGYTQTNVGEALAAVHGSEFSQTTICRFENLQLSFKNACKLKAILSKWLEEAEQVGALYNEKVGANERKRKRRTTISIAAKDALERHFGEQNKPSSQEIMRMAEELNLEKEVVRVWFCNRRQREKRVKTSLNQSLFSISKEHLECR
Description: co-IP; HEK293T cells co-transfected with V5-POU1F1 and HA-HMGA1B or HA-HMGA2, harvested 48 h post-transfection; 1000 ug lysate incubated with anti-V5 or anti-HA conjugated agarose (Pierce Crosslink IP Kit); IgG as control; with or without ethidium bromide; western blot. For orientation: Immunoblotting shows a protein as a band on a membrane.

Amino acid sequences for entries named in this document (tags omitted). A change or cut given only in a name is not applied to a line headed by its entry. Chains listed by the source or under a name are the forms on record and can include a tag or linker.
GST-tagged HMGA1B recombinant protein (P17096-2, form named): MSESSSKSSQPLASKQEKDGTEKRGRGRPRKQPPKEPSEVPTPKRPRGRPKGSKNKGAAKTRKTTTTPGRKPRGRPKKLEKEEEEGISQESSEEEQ

The target of assay [2] is HA-tagged HMGA1B (UniProt P17096). Described as above.
In assay [3] the target is GST-tagged HMGA1B recombinant protein (UniProt P17096). Description: pull-down; GST, GST-HMGA1B or GST-HMGA2 recombinant protein conjugated to glutathione agarose (Pierce GST Protein Interaction Pull-Down Kit), incubated with cell lysates of POU1F1-overexpressing HEK293T or SGC7901 cells; eluate analysed by western blot; only the target purified.

No constants are given. Whether binding was seen depends on the method and setting. Binding seen in cells or lysates may run through a third protein. Some results given as binding are weak or reduced against the parent protein; the word gives no strength. Where a sequence is shown, tags or fusion partners need not be part of it.

The source of these data is article PMC8084942.

“HA-tagged HMGA1B (from UniProt P17096-2 1-96)”: the binding entry in assay [1] is “binds”.

B1: V5-tagged POU1F1 (POU class 1 homeobox 1), expressed in HEK293T cells (protein, UniProt P28069 1-291)
chain: T1 sequence
Regarding B1, the binding result in assay [2] and in assay [3] was “binds” in each case.

B2: V5-tagged POU1F1 (POU class 1 homeobox 1), expressed in SGC7901 cells (protein, UniProt P28069 1-291)
chain: T1 sequence
Consider B2, for which the binding entry in assay [3] is “binds”.
